These results are taken from article PMC10434054.

By UniProt entry, the sequences of proteins in these tests, tags left out. Residues count along the entry.
UniProt P35579: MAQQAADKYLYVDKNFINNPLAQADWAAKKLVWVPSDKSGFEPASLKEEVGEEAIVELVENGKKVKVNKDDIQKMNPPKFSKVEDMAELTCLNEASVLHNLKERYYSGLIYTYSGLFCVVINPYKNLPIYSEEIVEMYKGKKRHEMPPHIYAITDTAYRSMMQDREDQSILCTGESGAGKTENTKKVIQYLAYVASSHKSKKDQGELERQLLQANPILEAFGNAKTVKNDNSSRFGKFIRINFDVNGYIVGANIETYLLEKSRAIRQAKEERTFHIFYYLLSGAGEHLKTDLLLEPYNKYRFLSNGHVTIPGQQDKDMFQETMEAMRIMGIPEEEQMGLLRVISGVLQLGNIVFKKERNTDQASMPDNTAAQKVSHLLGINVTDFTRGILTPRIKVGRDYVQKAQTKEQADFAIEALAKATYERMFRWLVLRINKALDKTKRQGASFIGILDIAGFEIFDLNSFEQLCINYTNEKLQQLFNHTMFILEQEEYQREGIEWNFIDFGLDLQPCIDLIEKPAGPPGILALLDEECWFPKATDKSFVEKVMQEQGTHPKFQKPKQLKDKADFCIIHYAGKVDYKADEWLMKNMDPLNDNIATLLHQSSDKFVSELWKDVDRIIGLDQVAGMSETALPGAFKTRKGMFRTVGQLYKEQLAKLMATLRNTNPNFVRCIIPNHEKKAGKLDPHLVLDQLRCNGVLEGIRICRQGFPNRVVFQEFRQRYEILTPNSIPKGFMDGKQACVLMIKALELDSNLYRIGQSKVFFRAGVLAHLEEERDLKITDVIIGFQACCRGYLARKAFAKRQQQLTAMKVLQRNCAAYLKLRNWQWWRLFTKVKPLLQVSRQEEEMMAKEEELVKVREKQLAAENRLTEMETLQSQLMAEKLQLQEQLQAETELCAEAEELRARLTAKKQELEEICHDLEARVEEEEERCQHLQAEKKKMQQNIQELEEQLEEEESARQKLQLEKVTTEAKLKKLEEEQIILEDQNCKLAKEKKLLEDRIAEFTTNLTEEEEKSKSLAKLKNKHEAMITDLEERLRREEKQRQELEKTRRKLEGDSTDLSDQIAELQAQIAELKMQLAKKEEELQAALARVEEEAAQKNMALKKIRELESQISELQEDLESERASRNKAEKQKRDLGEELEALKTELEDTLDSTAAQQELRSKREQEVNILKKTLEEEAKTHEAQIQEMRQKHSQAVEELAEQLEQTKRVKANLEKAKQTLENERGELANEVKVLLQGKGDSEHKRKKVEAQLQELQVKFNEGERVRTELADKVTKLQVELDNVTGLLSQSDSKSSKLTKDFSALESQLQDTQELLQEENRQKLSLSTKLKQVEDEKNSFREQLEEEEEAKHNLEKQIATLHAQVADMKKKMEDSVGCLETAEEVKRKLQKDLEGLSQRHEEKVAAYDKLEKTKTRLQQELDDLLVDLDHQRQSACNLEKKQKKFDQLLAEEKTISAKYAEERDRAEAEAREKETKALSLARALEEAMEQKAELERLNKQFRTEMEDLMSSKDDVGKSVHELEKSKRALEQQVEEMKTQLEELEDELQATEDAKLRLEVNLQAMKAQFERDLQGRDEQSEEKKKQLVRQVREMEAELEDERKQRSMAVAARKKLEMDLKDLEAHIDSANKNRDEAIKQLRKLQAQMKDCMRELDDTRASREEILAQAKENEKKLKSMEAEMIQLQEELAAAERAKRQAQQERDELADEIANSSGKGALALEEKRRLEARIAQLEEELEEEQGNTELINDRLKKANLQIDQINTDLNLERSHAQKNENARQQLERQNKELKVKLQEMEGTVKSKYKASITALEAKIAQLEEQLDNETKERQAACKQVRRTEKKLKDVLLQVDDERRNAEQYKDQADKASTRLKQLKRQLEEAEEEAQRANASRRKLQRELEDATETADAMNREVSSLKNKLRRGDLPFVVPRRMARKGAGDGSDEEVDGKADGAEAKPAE
UniProt P30101, residues 25-505: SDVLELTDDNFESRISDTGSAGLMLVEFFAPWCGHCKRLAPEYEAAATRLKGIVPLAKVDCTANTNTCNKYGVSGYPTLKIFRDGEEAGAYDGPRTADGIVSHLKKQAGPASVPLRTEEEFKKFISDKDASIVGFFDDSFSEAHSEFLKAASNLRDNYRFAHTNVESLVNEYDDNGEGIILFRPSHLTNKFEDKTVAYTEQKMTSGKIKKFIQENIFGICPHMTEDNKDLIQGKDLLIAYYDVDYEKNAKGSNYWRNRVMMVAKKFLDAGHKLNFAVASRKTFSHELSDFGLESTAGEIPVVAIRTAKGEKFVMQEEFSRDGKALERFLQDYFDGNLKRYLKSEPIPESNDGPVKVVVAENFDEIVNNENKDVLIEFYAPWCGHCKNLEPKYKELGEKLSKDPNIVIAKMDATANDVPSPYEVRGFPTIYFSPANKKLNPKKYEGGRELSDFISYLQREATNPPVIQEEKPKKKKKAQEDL

Results are given in words; binding and its absence hold for the method and conditions named. In cells and extracts the contact can be indirect. These calls come from enrichment with a bait or labelling near it, and not all partners need be listed. Where a sequence is shown, tags or fusion partners need not be part of it.

For this assay, the target named is T1, wild-type FAM46C, C-terminally Myc-DDK tagged (human) (UniProt Q5VWP2).
T1 sequence: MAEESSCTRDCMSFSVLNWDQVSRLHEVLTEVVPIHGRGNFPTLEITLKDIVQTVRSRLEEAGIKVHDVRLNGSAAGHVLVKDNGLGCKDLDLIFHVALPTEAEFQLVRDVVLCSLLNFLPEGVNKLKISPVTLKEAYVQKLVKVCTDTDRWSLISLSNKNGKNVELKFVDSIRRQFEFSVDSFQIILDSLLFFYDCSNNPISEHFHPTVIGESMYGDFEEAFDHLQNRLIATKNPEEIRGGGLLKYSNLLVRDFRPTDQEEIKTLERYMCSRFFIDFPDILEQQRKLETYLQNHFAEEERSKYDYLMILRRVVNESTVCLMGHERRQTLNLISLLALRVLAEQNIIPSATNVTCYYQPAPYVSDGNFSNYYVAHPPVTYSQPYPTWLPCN
The assay is described as follows: affinity purification with mass spectrometry; anti-FLAG antibodies on protein G-Dynabeads, 3 mg total HEK-293T lysate, 4 h at 4°C, lysis buffer 50 mM Tris-HCl pH 7.4, 150 mM NaCl, 1% Triton, 1 mM MgCl2; cells with or without lentiviral envelope and packaging plasmids; gel bands, LC-MS/MS, LFQ.

As to “Myosin-9 (MYH9) (from UniProt P35579 1-1960)”, the binding entry was “binds”. The same measure for PDIA3 (from UniProt P30101 25-505): “binds”.
